PubChem BioAssay AID602196, INSERM – 2012
The whole screen tested about 23,000 reagents; below is an unselected part. 455 of them (2%) were called active. 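Active includes both protection and sensitisation; some change values fall well beyond the stated -50 to +50 range.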 The record does not give: the amount of reagent.

Test: 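Knock-downs that protect lung cancer cells from cisplatin or sensitise them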
System: human A549 lung cancer cells
Knock-down reagent: siRNA pair against human genes
Time to read-out: 48 h transfection before cisplatin; time from cisplatin to read-out not stated
Conditions: cisplatin at a dose killing half of control-siRNA cells; exact dose and duration not given
Measured: 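Shift in cisplatin death relative to control siRNA, from -50 (all cells die) to +50 (no cells die); siRNAs harmful on their own scored 0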
Scale: two-siRNA summed score (-2 to +2): higher = both siRNAs protect from cisplatin killing; -2 means both sensitise; mean protection from cisplatin (shift in death) and protection from cisplatin (shift in death), siRNA C and protection from cisplatin (shift in death), siRNA D: higher = protection from cisplatin killing
Active means: 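siRNAs harmful alone (LDH or WST-1) get 0; others get +1 for less and -1 for more cisplatin killing; genes are active when the two siRNAs give the same sign, summing to ±2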
Meaning of the calls: active = both siRNAs shift cisplatin killing the same way; inactive = no consistent shift, or siRNA harmful alone

| gene | two-siRNA summed score (-2 to +2) | mean protection from cisplatin (shift in death) (%) | protection from cisplatin (shift in death), siRNA C (%) | protection from cisplatin (shift in death), siRNA D (%) | Outcome |
| --- | --- | --- | --- | --- | --- |
| LOC400411 | 0 | 13.3 | 16.9 | 9.7 | inactive |
| PEX10 (GeneID 5192) | 0 | 28.1 | -4.1 | 60.2 | inactive |
| TSPEAR (GeneID 54084) | 0 | 1.7 | 5 | -1.7 | inactive |
| LOC440827 | 0 | 3 | 5 | 1 | inactive |
| BCL2L10 (GeneID 10017) | 0 | -4.7 | 1.3 | -10.7 | inactive |
| ATP6V1B1 (GeneID 525) | 0 | -0.5 | -3.9 | 3 | inactive |
| FLJ10157 | 0 | -6.7 | -9.9 | -3.5 | inactive |
| ARL11 (GeneID 115761) | 0 | 1 | -9.2 | 11.1 | inactive |
| LOC388589 | 0 | -1.4 | -5.6 | 2.8 | inactive |
| BLOC1S3 (GeneID 388552) | 1 | 20 | 11.1 | 28.9 | inactive |
| RET | 0 | -2.5 | -8.3 | 3.2 | inactive |
| IMPG1 (GeneID 3617) | 0 | 9.8 | 16 | 3.6 | inactive |
| LINC01554 (GeneID 202299) | 0 | 4.8 | 0.6 | 9 | inactive |
| HOXC4 (GeneID 3221) | 0 | 1.3 | 9.8 | -7.1 | inactive |
| HSPA13 (GeneID 6782) | 0 | 2.9 | 3.2 | 2.6 | inactive |
| PFKFB4 (GeneID 5210) | 0 | 6.2 | 5.9 | 6.6 | inactive |
| TREML1 (GeneID 340205) | 1 | 13.1 | 9.1 | 17.2 | inactive |
| KCNS2 (GeneID 3788) | 0 | -6.7 | -1.2 | -12.1 | inactive |
| LOC400590 (retired record) (GeneID 400590) | 0 | -4.4 | -3.4 | -5.4 | inactive |
| LOC387915 | 0 | 4.5 | 4 | 4.9 | inactive |
| FLJ44076 | 0 | 20.8 | 25.6 | 15.9 | inactive |
| USP41P (GeneID 373856) | -1 | -2.6 | 10.5 | -15.8 | inactive |
| FBL (GeneID 2091) | 0 | 3.2 | -10.1 | 16.5 | inactive |
| USP31 (GeneID 57478) | -1 | -21.2 | -18.3 | -24.1 | inactive |
| LOC345378 | 0 | 6.2 | 6.7 | 5.7 | inactive |
| CTSG (GeneID 1511) | 0 | -10.3 | -27.5 | 7 | inactive |
| LOC400792 | 1 | 13.2 | 12.6 | 13.8 | inactive |
| TM9SF1 (GeneID 10548) | 0 | 17.8 | 29.4 | 6.1 | inactive |
| ACTR10 (GeneID 55860) | 0 | 9.5 | 10 | 9.1 | inactive |
| PECAM1 (GeneID 5175) | -1 | 12.2 | -13.7 | 38 | inactive |
| KLRG2 (GeneID 346689) | 0 | -12.6 | -23.3 | -2 | inactive |
| WDR47 (GeneID 22911) | 1 | 4.7 | -2.3 | 11.6 | inactive |
| PRICKLE3 (GeneID 4007) | 1 | 8.6 | 25.3 | -8 | inactive |
| MYBPC1 (GeneID 4604) | 0 | -1.6 | 2.2 | -5.4 | inactive |
| RAC3 (GeneID 5881) | -1 | -6.1 | -14.9 | 2.7 | inactive |
| TPP1 (GeneID 1200) | 0 | 0.1 | -4.5 | 4.8 | inactive |
| TMEM45A (GeneID 55076) | 0 | -3.6 | 3.5 | -10.7 | inactive |
| OR6K2 (GeneID 81448) | 0 | 7.2 | 1 | 13.3 | inactive |
| COPS3 (GeneID 8533) | 0 | 1.3 | 4.1 | -1.4 | inactive |
| USH2A (GeneID 7399) | 0 | 10.9 | 17.6 | 4.2 | inactive |
| KRABD5 (GeneID 124411) | 0 | 1.2 | 1 | 1.5 | inactive |
| LOC401358 | 0 | 5.4 | 0.5 | 10.4 | inactive |
| SLC13A3 (GeneID 64849) | 0 | 3.5 | 17.1 | -10.1 | inactive |
| OSER1 (GeneID 51526) | 0 | 2.4 | 0.9 | 3.9 | inactive |
| OR7G3 (GeneID 390883) | 0 | -10.2 | -3.1 | -17.3 | inactive |
| TTC32 (GeneID 130502) | 0 | -3.5 | 2.3 | -9.3 | inactive |
| TBP (GeneID 6908) | -1 | -12.1 | 0.1 | -24.3 | inactive |
| PRKD1 (GeneID 5587) | 1 | 10.2 | 6.5 | 13.9 | inactive |
| CPB1 (GeneID 1360) | 1 | 8.4 | 16.3 | 0.6 | inactive |
| RTN4R (GeneID 65078) | 1 | 11.6 | 29.2 | -6 | inactive |
| LOC389081 | -1 | 4.6 | 22.1 | -12.8 | inactive |
| OTUB2 (GeneID 78990) | 0 | -9.7 | -5.7 | -13.7 | inactive |
| FAXDC2 (GeneID 10826) | 1 | 11.2 | 7.1 | 15.2 | inactive |
| HTR2A (GeneID 3356) | 1 | 7.3 | -5.3 | 19.9 | inactive |
| RNF19A (GeneID 25897) | 0 | -3.8 | 0.9 | -8.5 | inactive |
| LOC220416 | 1 | 9.3 | 8.4 | 10.3 | inactive |
| CRHR1 (GeneID 1394) | -2 | -18.2 | -21.9 | -14.5 | active |
| HVCN1 (GeneID 84329) | 1 | 7.2 | -5.4 | 19.7 | inactive |
| LOC339483 | 0 | 6 | 11.4 | 0.6 | inactive |
| ZSCAN31 (GeneID 64288) | 0 | 7.4 | 1.7 | 13 | inactive |
| RASA1 (GeneID 5921) | 0 | -6.5 | -27.8 | 14.8 | inactive |
| NICN1 (GeneID 84276) | 0 | 0 | 3.4 | -3.5 | inactive |
| PLPP7 (GeneID 84814) | 0 | -0.2 | -0.7 | 0.2 | inactive |
| CIMIP6 (GeneID 129852) | 0 | 6.4 | 5.6 | 7.1 | inactive |
| CYP20A1 (GeneID 57404) | 0 | 0 | 14.8 | -14.8 | inactive |
| OR2L3 (GeneID 391192) | 0 | 4.5 | 6.1 | 2.9 | inactive |
| SLC9B2 (GeneID 133308) | 0 | 1 | 16.1 | -14 | inactive |
| KLHDC7A (GeneID 127707) | 1 | 13.7 | 12.9 | 14.4 | inactive |
| EHBP1L1 (GeneID 254102) | 1 | 3.7 | -0.7 | 8.1 | inactive |
| AGAP4 (GeneID 119016) | 0 | -4.3 | -20.9 | 12.3 | inactive |
| SLC25A27 (GeneID 9481) | 0 | -3.9 | 7.6 | -15.5 | inactive |
| ZNF91 (GeneID 7644) | 1 | 4.8 | 1 | 8.6 | inactive |
| SLC15A2 (GeneID 6565) | 0 | -3.3 | -12.7 | 6.1 | inactive |

Just “protection from cisplatin (shift in death), siRNA C (%)” (4 entries from above):
PECAM1 (GeneID 5175): -13.7
KLRG2 (GeneID 346689): -23.3
WDR47 (GeneID 22911): -2.3
PRICKLE3 (GeneID 4007): 25.3
